Source: PubChem BioAssay AID743255 (National Center for Advancing Translational Sciences (NCATS), 2014)
Hit rate of the full screen: of about 390,000 compounds, about 910 (0.23%) were called active. This list was built around the results that the source calls inconclusive (neither active nor inactive); the mix of calls is not that of the screen. The call rests on the fitted dose curve; in most records, active means well fitted inhibition curve with a large enough effect; inconclusive means small, poorly fitted or top-dose-only effect; inactive means no such curve, though single readings can be large or run the other way. A potency beside an inconclusive call is a rough fit, not a confirmed value.

Amino acid sequences for entries named in this document (tags omitted). A change or cut given only in a name is not applied to a line headed by its entry.
UniProt O94782: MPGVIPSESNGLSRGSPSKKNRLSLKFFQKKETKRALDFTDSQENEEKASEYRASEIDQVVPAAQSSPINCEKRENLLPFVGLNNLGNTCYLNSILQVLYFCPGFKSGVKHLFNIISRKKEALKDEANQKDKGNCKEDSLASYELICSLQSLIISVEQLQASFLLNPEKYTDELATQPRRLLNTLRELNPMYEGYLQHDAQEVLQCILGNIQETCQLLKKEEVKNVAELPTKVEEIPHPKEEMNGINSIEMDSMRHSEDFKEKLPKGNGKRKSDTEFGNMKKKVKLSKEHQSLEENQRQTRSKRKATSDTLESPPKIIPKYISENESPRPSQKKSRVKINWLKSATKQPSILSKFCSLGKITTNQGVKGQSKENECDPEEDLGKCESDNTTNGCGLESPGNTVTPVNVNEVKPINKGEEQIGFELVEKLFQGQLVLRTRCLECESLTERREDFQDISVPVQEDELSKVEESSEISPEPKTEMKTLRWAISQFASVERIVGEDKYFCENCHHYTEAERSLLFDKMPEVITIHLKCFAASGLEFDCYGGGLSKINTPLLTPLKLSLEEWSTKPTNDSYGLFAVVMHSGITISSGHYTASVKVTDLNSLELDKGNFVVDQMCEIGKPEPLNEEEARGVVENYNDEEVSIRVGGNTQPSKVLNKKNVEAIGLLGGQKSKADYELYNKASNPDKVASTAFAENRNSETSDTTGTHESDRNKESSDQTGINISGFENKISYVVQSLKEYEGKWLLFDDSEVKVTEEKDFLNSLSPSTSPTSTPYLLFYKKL

What follows are compounds tested against Ubiquitin carboxyl-terminal hydrolase 1 (Homo sapiens) (UniProt O94782) (assay: Inhibitors of USP1/UAF1: Primary Screen). Conditions: recombinant USP1/UAF1, Ub-Rhodamine cleavage fluorescence; activity change, negative = inhibition: at 57.1 µM (top of the series).
Outline: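 1 nM enzyme complex + cpd, 15 min RT; start with Ub-Rho 150nM final; kinetic fluorescence ex 480/em 540, 6 reads q60 s. Buffer 50mM HEPES pH 7.8, 0.5mM EDTA, 0.1 mg/ml BSA, 1mM TCEP, 0.01% Tween-20.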
Further: nearly all actives have a fitted effect of over 60% in size.
On the % scale 0 is the no-effect control and ±100 the full control effect; potency means the concentration at half of the fitted maximal effect.

| SMILES | activity change, negative = inhibition | Potency |
| --- | --- | --- |
| COc1ccc(C(=O)NC(=S)Nc2ccc3oc(=O)ccc3c2)cc1OC | inactive: -0.513% |  |
| COc1ccc2cc(-c3nc(Cl)c4c5c(sc4n3)CCCC5)c(=O)oc2c1 |  | inconclusive: 5.62 µM [inhibitor, partial curve, poor fit] |
| COc1ccc(-n2ncc3c(N4CCC(C)CC4)ncnc32)cc1 |  | inconclusive: 44.7 µM [inhibitor, single point] |
| Cc1ccc(Nc2c(F)c(F)c(F)c(F)c2C(=O)O)c(C)c1 |  | inconclusive: 6.31 µM [inhibitor, single point] |
| CC(C)OCCCNC(=O)[C@H]1N2C(=O)c3ccccc3C2SC1(C)C (stereo partly specified) |  | inconclusive: 5.62 µM [inhibitor, single point] |
| Cc1ccc(OCCCOc2cccc3cccnc23)cc1C |  | inconclusive: 35.5 µM [inhibitor, single point] |
| c1ccc(CN2CCC(N3CCC(N4CCCCCC4)CC3)CC2)cc1 | inactive: -23.7% |  |
| COc1cc(C(=O)Oc2cc(N)n(S(=O)(=O)c3ccccc3)n2)cc(OC)c1OC |  | inconclusive: 25.1 µM [inhibitor, single point] |
| O=C(O)CSc1cn(Cc2ccccc2)c2ccccc12 |  | inconclusive: 0.708 µM [inhibitor, full curve] |
| C[C@H](CO)N1C[C@H](C)[C@@H](CN(C)Cc2ccncc2)Oc2c(NC(=O)CCCCCC(=O)Nc3ccccc3N)cccc2C1=O |  | inconclusive: 56.2 µM [inhibitor, partial curve, poor fit] |
| Cc1cc(C)c(S(=O)(=O)/N=C2\C=C(NS(=O)(=O)c3ccccc3)C(=O)c3ccccc32)c(C)c1 |  | inconclusive: 25.1 µM [inhibitor, partial curve, poor fit] |
| COCCCN1C(=O)C(CC(=O)NCC2CCCCC2)CC(C(=O)N2CCOCC2)=C1C (stereo unspecified) |  | inconclusive: 0.282 µM [inhibitor, full curve, poor fit] |
| CCCCn1c(SCC(=O)NCc2ccc(OC)c(C(=O)O)c2)nc2cc(S(N)(=O)=O)ccc21 |  | inconclusive: 44.7 µM [inhibitor, partial curve, poor fit] |
| Cc1ccc(C(=O)O)cc1-c1ccc(/C=C2\SC(=O)N(CC(=O)Nc3ccc4c(c3)OCO4)C2=O)o1 |  | inconclusive: 35.5 µM [inhibitor, partial curve, poor fit] |
| Cc1ccc2nc(-c3ccc(Cl)c(NC(=O)c4cccc([N+](=O)[O-])c4C)c3)oc2c1 |  | inconclusive: 44.7 µM [inhibitor, partial curve, poor fit] |
| COCCCNC(=O)c1c(NC(=O)c2cc(=O)c3ccccc3o2)sc2c1CCCC2 |  | inconclusive: 5.62 µM [inhibitor, single point] |

Part of the list above in order of count of non-hydrogen atoms, smallest number first:

| SMILES | activity change, negative = inhibition | Potency |
| --- | --- | --- |
| O=C(O)CSc1cn(Cc2ccccc2)c2ccccc12 |  | inconclusive: 0.708 µM [inhibitor, full curve] |
| COc1ccc(C(=O)NC(=S)Nc2ccc3oc(=O)ccc3c2)cc1OC | inactive: -0.513% |  |
| C[C@H](CO)N1C[C@H](C)[C@@H](CN(C)Cc2ccncc2)Oc2c(NC(=O)CCCCCC(=O)Nc3ccccc3N)cccc2C1=O |  | inconclusive: 56.2 µM [inhibitor, partial curve, poor fit] |
